PubChem BioAssay AID1259308, NCATS, 2017
In all, the deposit lists about 59,000 reagents; below is an unselected part. About 1,510 of all reagents (2.6%) were called active. 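Calls use total luciferase alone and ignore viability, so some active siRNAs may act by altering cell number.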 Further read-outs or replicates are left out here. Reagent sequences are not shown.

Purpose: 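Genes whose loss raises luciferase production in HEK293 cells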 (primary screen)
Cell system: human HEK293 embryonic kidney cells stably expressing firefly luciferase (HEK-CMV-Luc2-Hygro)
Knock-down reagent: single siRNA against human genes, 0.8 pmol siRNA per well
Duration: 72 h
Detection: 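Reporter luminescence and viable-cell signal on separate replicate plates, given as percent of non-targeting control and median/MAD z-scores, plus per-cell luciferase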
Direction: total luciferase, z-score and total luciferase, % of control: higher = more reporter protein produced
Rule for the call: 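Active when the median/MAD z-score for overall luciferase is greater than 3; a gene was taken forward for validation with new siRNAs if at least two of its three siRNAs passed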
Calls: active = raised luciferase; inactive = no rise

no.	gene	PubChem SID	total luciferase, z-score	total luciferase, % of control	Outcome
1	DCAKD (dephospho-CoA kinase domain containing)	SID160749677	-0.116	79.6	inactive
2	DCAKD (dephospho-CoA kinase domain containing)	SID160749678	0.287	87.6	inactive
3	DCAKD (dephospho-CoA kinase domain containing)	SID160749679	-0.133	79.2	inactive
4	S100A11P1 (S100A11 pseudogene 1)	SID160734595	0.158	85	inactive
5	S100A11P1 (S100A11 pseudogene 1)	SID160773029	1.95	121	inactive
6	S100A11P1 (S100A11 pseudogene 1)	SID160773030	-1.12	59.7	inactive
7	MAL2 (mal, T cell differentiation protein 2)	SID160754928	1.23	106	inactive
8	MAL2 (mal, T cell differentiation protein 2)	SID160754929	5.62	194	active
9	MAL2 (mal, T cell differentiation protein 2)	SID160754930	-0.741	67.2	inactive
10	RASSF1 (Ras association domain family member 1)	SID160730155	1.28	107	inactive
11	RASSF1 (Ras association domain family member 1)	SID160730156	-1.29	56.3	inactive
12	RASSF1 (Ras association domain family member 1)	SID160730518	-0.588	70.2	inactive
13	MARCHF7 (membrane associated ring-CH-type finger 7)	SID160748057	1.31	108	inactive
14	MARCHF7 (membrane associated ring-CH-type finger 7)	SID160748058	-0.839	65.2	inactive
15	MARCHF7 (membrane associated ring-CH-type finger 7)	SID160748059	0.117	84.2	inactive
16	CDK5RAP2 (CDK5 regulatory subunit associated protein 2)	SID160744274	0.279	87.4	inactive
17	CDK5RAP2 (CDK5 regulatory subunit associated protein 2)	SID160744275	-0.989	62.2	inactive
18	CDK5RAP2 (CDK5 regulatory subunit associated protein 2)	SID160744277	0.269	87.2	inactive
19	SLC22A31	SID160724852	0.158	85	inactive
20	SLC22A31	SID160724853	-0.00464	81.8	inactive
21	SLC22A31	SID160724854	2.67	135	inactive
22	PKD1L2 (polycystin 1 like 2 (gene/pseudogene))	SID160754954	1.09	104	inactive
23	PKD1L2 (polycystin 1 like 2 (gene/pseudogene))	SID160754955	-0.218	77.6	inactive
24	PKD1L2 (polycystin 1 like 2 (gene/pseudogene))	SID160754956	-1.04	61.2	inactive
25	OR4B1 (olfactory receptor family 4 subfamily B member 1)	SID160755759	0.34	88.7	inactive
26	OR4B1 (olfactory receptor family 4 subfamily B member 1)	SID160755760	-0.644	69.1	inactive
27	OR4B1 (olfactory receptor family 4 subfamily B member 1)	SID160755761	0.116	84.2	inactive
28	TMEM132D (transmembrane protein 132D)	SID160755868	-0.114	79.6	inactive
29	TMEM132D (transmembrane protein 132D)	SID160755869	-0.478	72.4	inactive
30	TMEM132D (transmembrane protein 132D)	SID160755870	0.697	95.8	inactive
31	MAGEB3 (MAGE family member B3)	SID160776916	0.112	84.1	inactive
32	MAGEB3 (MAGE family member B3)	SID160776917	-0.0756	80.4	inactive
33	MAGEB3 (MAGE family member B3)	SID160776918	-0.283	76.3	inactive
34	TIA1 (TIA1 cytotoxic granule associated RNA binding protein)	SID160718066	-1.51	51.9	inactive
35	TIA1 (TIA1 cytotoxic granule associated RNA binding protein)	SID160718067	0.376	89.4	inactive
36	TIA1 (TIA1 cytotoxic granule associated RNA binding protein)	SID160718068	1.58	113	inactive
37	ZNF268 (zinc finger protein 268)	SID160729238	-0.576	70.4	inactive
38	ZNF268 (zinc finger protein 268)	SID160729239	0.149	84.9	inactive
39	ZNF268 (zinc finger protein 268)	SID160729240	1.85	119	inactive
40	CD163L1 (CD163 molecule like 1)	SID160762861	-0.448	73	inactive
41	CD163L1 (CD163 molecule like 1)	SID160762863	-0.164	78.6	inactive
42	CD163L1 (CD163 molecule like 1)	SID160762864	-1.24	57.2	inactive
43	CNMD (chondromodulin)	SID160729847	-0.248	76.9	inactive
44	CNMD (chondromodulin)	SID160729848	0.769	97.2	inactive
45	CNMD (chondromodulin)	SID160732313	-1.66	48.9	inactive
46	PTDSS1 (phosphatidylserine synthase 1)	SID160771857	-0.365	74.6	inactive
47	PTDSS1 (phosphatidylserine synthase 1)	SID160771940	-0.261	76.7	inactive
48	PTDSS1 (phosphatidylserine synthase 1)	SID160772038	0.0166	82.2	inactive
49	NUDT11 (nudix hydrolase 11)	SID160743176	0.422	90.3	inactive
50	NUDT11 (nudix hydrolase 11)	SID160743177	3.04	142	active
51	NUDT11 (nudix hydrolase 11)	SID160743178	-0.238	77.1	inactive
52	BNIP3 (BCL2 interacting protein 3)	SID160728598	-0.215	77.6	inactive
53	BNIP3 (BCL2 interacting protein 3)	SID160728610	-1.06	60.8	inactive
54	BNIP3 (BCL2 interacting protein 3)	SID160728621	-0.878	64.4	inactive
55	DSEL (dermatan sulfate epimerase like)	SID160754190	-0.98	62.4	inactive
56	DSEL (dermatan sulfate epimerase like)	SID160754191	-0.0347	81.2	inactive
57	DSEL (dermatan sulfate epimerase like)	SID160754193	1.05	103	inactive
